Measured values as given in PubChem BioAssay AID504848 (National Center for Advancing Translational Sciences (NCATS), 2011).
Hit rate of the full screen: of about 2,300 compounds, about 1,400 (61%) were called active. So high a share suggests a set chosen from earlier hits. Inconclusive results, whose numbers are uncertain, are shown with a selection of clear calls. Calls follow the shape of the dose curve; as a rule, active = well fitted inhibition curve with a large enough effect; inconclusive = small, poorly fitted or top-dose-only effect, or effect the other way; inactive = no such curve, though single readings can be large or run the other way. Where the call is inconclusive, the potency comes from a doubtful curve fit.

test: Confirmation screen for delayed death inhibitors of the malarial parasite plastid, 96 hour incubation; also: nearly all actives have a fitted effect of over 60% in size; conditions: P. falciparum luciferase growth in erythrocytes; series mostly up to 28.7 µM; activity change, negative = inhibition: at the top concentration
Procedure, shortened: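 Two-generation (96 h, 37 C) exposure of P. falciparum carrying an integrated firefly luciferase reporter in erythrocytes, 0.1% parasitemia and 2% hematocrit final, Albumax-supplemented RPMI. Luminescence decrease measures growth inhibition.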
% is scaled to controls: 0 for no effect and ±100 for the full control effect; potency is read from the fitted curve at half-maximal effect.

Question: For COc1cccc(CNC(=O)c2cc3oc4ccccc4c3n2C)c1OC, which “activity change, negative = inhibition” value is on record?
Answer: The value was inactive: -5.93%.

Question: For Cn1c(CCN2CCCCC2)nc2cc([N+](=O)[O-])ccc21, which “activity change, negative = inhibition” value is on record?
Answer: Its value is inactive: -17.4%.

Question: For O=c1cc(CSc2nc(NCc3ccccc3)c3ccccc3n2)nc2ccc(Cl)cn12, which Potency is on record?
Answer: The Potency was active: 3.55 µM.

Question: Which Potency does the source give for O=C(NC1CCS(=O)(=O)C1)/C(=C\c1ccc(F)cc1)NC(=O)c1ccccc1 (configuration not stated) here?
Answer: The Potency was inconclusive: 17.8 µM [inhibitor, partial curve, poor fit].

Question: With COC(=O)c1sc(N2C(=O)C(O)=C(C(=O)c3ccc(C)o3)C2c2ccc(OC)c(OC)c2)nc1C (configuration not stated) as the compound, how does the Potency read?
Answer: The Potency was inconclusive: 17.8 µM [inhibitor, partial curve, poor fit].

Question: Which Potency does the source give for CC(=O)C1=C(c2ccccc2)N(C(C)=O)n2c(C)nnc2S1 here?
Answer: The Potency was inconclusive: 15.8 µM [inhibitor, single point].

Question: With Cc1nn(Cc2ccccc2Cl)c(C)c1C(=O)Nc1nnc(C2CC2)s1 as the compound, how does the Potency read?
Answer: The Potency was active: 11.2 µM.

Question: Which Potency does the source give for CCOc1ccc(NC(=O)CSc2nnnn2C2CC2)cc1S(=O)(=O)N1CCCC1 here?
Answer: The Potency was inconclusive: 15.8 µM [inhibitor, partial curve, poor fit].

Question: Which Potency does the source give for O=C(N1CCOCC1)N1c2ccccc2CC(N2CCOCC2)c2ccccc21 (configuration not stated) here?
Answer: The Potency was inconclusive: 3.55 µM [inhibitor, single point].

Question: For Cc1c(OC(C)C(=O)N2C[C@H]3C[C@@H](C2)c2cccc(=O)n2C3)ccc2c3c(c(=O)oc12)CCC3 (some centres not stated), which Potency is on record?
Answer: Its Potency is active: 11.2 µM.

Question: With COCCn1c(SCC(=O)Nc2ncc(Cl)c(C)c2Cl)nc2ccccc21 as the compound, how does the Potency read?
Answer: The Potency was inconclusive: 14.1 µM [inhibitor, single point].

Question: Which Potency does the source give for Cc1ccc(C(=O)OCc2nc(N)nc(Nc3ccccc3C)n2)cc1 here?
Answer: Its Potency is inconclusive: 15.8 µM [inhibitor, single point].

Question: With COc1ccc2c(ccc[n+]2CC(=O)c2ccccc2)c1 as the compound, how does the Potency read?
Answer: Its Potency is active: 14.1 µM.

Question: With CC(CN1CCC(n2nccc2NC(=O)c2ccccc2Cl)CC1)c1ccccc1 (configuration not stated) as the compound, how does the Potency read?
Answer: The Potency was active: 10 µM.

Question: Which Potency does the source give for COc1cccc(/C=C2\SC(=O)N(CCC(=O)NC3CCS(=O)(=O)C3)C2=O)c1 (configuration not stated) here?
Answer: Its Potency is inconclusive: 0.282 µM [inhibitor, full curve, poor fit].

Question: Which Potency does the source give for COc1ccc(CN2CCN(Cc3cc4ccccc4o3)CC2CCO)cc1C (configuration not stated) here?
Answer: Its Potency is inconclusive: 0.447 µM [inhibitor, full curve, poor fit].

Question: Which “activity change, negative = inhibition” value does the source give for CCOC(=O)c1ccc(CNC(=O)c2cc(COc3ccccc3SC)on2)o1 here?
Answer: Its value is inactive: -8.32%.

Question: With COc1ccccc1N1CCN(Cc2nc3ccccc3[nH]2)CC1 as the compound, how does the Potency read?
Answer: Its Potency is inconclusive: 7.94 µM [inhibitor, partial curve].

Question: For COc1ccccc1-c1nnc(NC(=O)CCS(=O)(=O)c2ccccc2)o1, which Potency is on record?
Answer: The Potency was inconclusive: 11.2 µM [inhibitor, partial curve, poor fit].

Question: With CCc1[nH]nc(C(=O)NC2CCCc3c2cnn3-c2cc(C)cc(C)c2)c1C (configuration not stated) as the compound, how does the Potency read?
Answer: Its Potency is inconclusive: 11.2 µM [activator, partial curve].

Question: Which Potency does the source give for CCCc1nnc(NC(=O)c2nc(S(=O)(=O)Cc3cccc(C)c3)ncc2Cl)s1 here?
Answer: The Potency was inconclusive: 8.91 µM [inhibitor, full curve, poor fit].

Question: For CC(CCc1ccccc1)NC(=O)COC(=O)c1ccc(S(C)(=O)=O)c([N+](=O)[O-])c1 (configuration not stated), which Potency is on record?
Answer: Its Potency is inconclusive: 2.51 µM [inhibitor, full curve, poor fit].

Question: Which Potency does the source give for Cc1noc(/C=C/c2nn(C)cc2Cl)c1[N+](=O)[O-] here?
Answer: The Potency was inconclusive: 0.282 µM [inhibitor, full curve, poor fit].

Question: With O=C(CC(SCCO)c1ccc(F)cc1)c1ccco1 (configuration not stated) as the compound, how does the Potency read?
Answer: The Potency was inconclusive: 0.0251 µM [inhibitor, full curve, poor fit].

Question: Which “activity change, negative = inhibition” value does the source give for C[C@H](NC(=O)c1nc[nH]c1C(=O)N[C@H](C)c1ccccc1)C(=O)OCc1ccccc1 here?
Answer: Its value is inactive: -12.3%.

Question: Which Potency does the source give for Cn1cc([N+](=O)[O-])c(C(=O)Nc2cc(Oc3ccccc3)cc([N+](=O)[O-])c2)n1 here?
Answer: Its Potency is inconclusive: 0.447 µM [activator, full curve, poor fit].

Question: With O=C1C2CCCN2C(c2ccc(F)cc2)N1c1ccc(Cl)cc1 (configuration not stated) as the compound, how does the Potency read?
Answer: The Potency was inconclusive: 11.2 µM [inhibitor, partial curve].

Question: Which Potency does the source give for O=C(CSc1nc(-c2ccccc2)cs1)Nc1cccc([N+](=O)[O-])c1 here?
Answer: The Potency was inconclusive: 15.8 µM [inhibitor, partial curve, poor fit].

Question: With CCOc1ccc(S(=O)(=O)N2CCOCC2)cc1NC(=O)CN1C(=O)NC(CC)(c2ccccc2)C1=O (configuration not stated) as the compound, how does the Potency read?
Answer: The Potency was inconclusive: 15.8 µM [inhibitor, partial curve, poor fit].

Question: For Cc1cc(C(=O)OC(C)C(=O)Nc2nc(-c3ccccc3)cs2)c(C)o1 (configuration not stated), which “activity change, negative = inhibition” value is on record?
Answer: The value was inactive: -14.6%.

Question: Which “activity change, negative = inhibition” value does the source give for O=[N+]([O-])/C=C\c1ccc(N2CCCC2)c(F)c1 here?
Answer: The value was inactive: -25.7%.

Question: For Cc1onc(-c2c(Cl)cccc2Cl)c1C(=O)NC1CCCCC1, which Potency is on record?
Answer: The Potency was active: 11.2 µM.

Question: With Cn1c(=O)c(=O)n(C)c2cc(N3CCCCC3)c(NS(=O)(=O)c3ccc(Br)cc3)cc21 as the compound, how does the Potency read?
Answer: The Potency was active: 12.6 µM.

Question: Which Potency does the source give for Clc1cccc(CN2CCc3c([nH]c4ccccc34)C2)c1 here?
Answer: The Potency was active: 12.6 µM.

Question: Which “activity change, negative = inhibition” value does the source give for CCCC(=O)Nc1nnc(CC(=O)N2CCCC2)s1 here?
Answer: The value was inactive: 25.1%.

Question: For CC1=NCCN1CCNC(=O)Nc1ccc(F)cc1, which “activity change, negative = inhibition” value is on record?
Answer: Its value is inactive: -7.96%.

Question: For Cc1ccc(SCC(=O)Nc2ccccc2C(=O)O)cc1, which Potency is on record?
Answer: Its Potency is inconclusive: 20 µM [activator, single point].

Question: For O=C(c1cccs1)N1CCC(c2nc3c(nnn3Cc3c(Cl)cccc3Cl)c(=O)[nH]2)CC1, which Potency is on record?
Answer: Its Potency is inconclusive: 0.447 µM [inhibitor, full curve, poor fit].

Question: For COCCn1c(=O)[nH]c2cc(C(=O)NCc3ccccc3)ccc2c1=O, which Potency is on record?
Answer: The Potency was inconclusive: 5.01 µM [inhibitor, partial curve, poor fit].

Question: With Cc1ccc(Cc2cnc(N3C(=N)SC(C)C3=O)s2)cc1 (configuration not stated) as the compound, how does the Potency read?
Answer: Its Potency is inconclusive: 14.1 µM [inhibitor, partial curve, poor fit].

Question: For Cc1cc(C(=O)Cn2nc(C(=O)O)c3ccccc3c2=O)c(C)n1CCc1ccc(F)cc1, which Potency is on record?
Answer: Its Potency is inconclusive: 12.6 µM [inhibitor, single point].

Question: Which Potency does the source give for N#CCc1ccc(C(=O)c2ccccc2F)s1 here?
Answer: Its Potency is inconclusive: 0.0126 µM [inhibitor, full curve, poor fit].
